Data source: PubChem BioAssay AID652243 (Drosophila RNAi Screening Center, 2013)
The deposit covers about 24,000 reagents; below is a random part of those with a known target gene and a result. Over the whole deposit, 246 (1%) were called active. 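Plates not normalised; calls are printed but the firefly/Renilla ratio behind them is not deposited; fold cut for lowering reported inconsistently.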 The raw values are shown without normalisation. Reagents against one gene are numbered here. Names joined by + are all predicted targets of the reagent. The record does not give: the amount of reagent.

Screen: 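Fly genes required for human androgen receptor driven transcription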 (primary screen)
Cells: Drosophila S2R+ cells
Reagent: long dsRNA against Drosophila genes
Time to read-out: 72 h (48 h, then 24 h hormone)
Treatment: synthetic androgen R1881 at 10 nM for 24 h
Measured: 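Firefly light from an androgen-responsive reporter and Renilla control light per well, raw and unnormalised, for each of two replicates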
Scale: firefly reporter light: higher = more light from androgen-responsive reporter; Renilla control light: higher = more constitutive control signal (cell number, transfection)
Hit rule: 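Across duplicate plates, a knock-down whose log firefly/Renilla ratio shifted a set fold down or up from the GFP/LacZ control mean was a hit; the downward cut appears as both 1.5 and 3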
Meaning of the calls: active = hit: reporter lowered or raised; inactive = no hit

The opening 3 entries as a preview:
gene	reagent no.	firefly reporter light, replicate 1	firefly reporter light, replicate 2	Renilla control light, replicate 1	Renilla control light, replicate 2	activity call
brwl (GeneID 34275)	1	19673	21948	75701	59711	inactive
brwl (GeneID 34275)	2	6.38e5	8.32e5	1.02e6	9.41e5	inactive
CG12164 (GeneID 35651)	1	1.09e6	1.14e6	1.09e6	1.17e6	inactive

Main list, from the start:
gene	reagent no.	firefly reporter light, replicate 1	firefly reporter light, replicate 2	Renilla control light, replicate 1	Renilla control light, replicate 2	activity call
brwl (GeneID 34275)	1	19673	21948	75701	59711	inactive
brwl (GeneID 34275)	2	6.38e5	8.32e5	1.02e6	9.41e5	inactive
CG12164 (GeneID 35651)	1	1.09e6	1.14e6	1.09e6	1.17e6	inactive
CG12164 (GeneID 35651)	2	3.83e5	3.37e5	1.64e6	1.62e6	inactive
CG12164 (GeneID 35651)	3	1.20e6	1.40e6	1.30e6	1.36e6	inactive
CG1773 (GeneID 35999)	1	7.28e5	6.44e5	2.16e6	2.26e6	inactive
Nopp140 (GeneID 40433)	1	3.49e5	3.70e5	2.87e6	2.78e6	inactive
Nopp140 (GeneID 40433)	2	3.98e5	3.05e5	3.46e5	3.95e5	inactive
Nopp140 (GeneID 40433)	3	7.24e5	7.12e5	1.69e6	1.76e6	inactive
Polr2A (GeneID 32100)	1	1.65e5	1.39e5	5.02e5	3.80e5	inactive
Polr2A (GeneID 32100)	2	2.55e5	2.12e5	3.48e5	3.71e5	inactive
Noc1 (GeneID 39240)	1	1.02e6	9.39e5	1.02e6	8.42e5	inactive
mAcon2 (GeneID 41326)	1	1.32e5	1.43e5	2.51e6	2.65e6	inactive
mAcon2 (GeneID 41326)	2	8.24e5	6.74e5	8.22e5	1.08e6	inactive
CG16739 (GeneID 37307)	1	60703	75603	1.04e6	9.80e5	inactive
CG14454 (GeneID 40482)	1	3.21e5	2.33e5	2.62e6	2.26e6	inactive
CG14454 (GeneID 40482)	2	8.58e5	1.08e6	9.20e5	1.02e6	inactive
CG5282 (GeneID 40256)	1	6783	19000	84554	1.18e5	inactive
CG34029 (GeneID 3885592)	1	1.00e6	7.51e5	2.41e6	2.04e6	inactive
Vps52 (GeneID 33774)	1	92142	64633	9.13e5	5.75e5	inactive
KP78b + KP78a	1	5.26e5	6.92e5	1.33e6	1.41e6	inactive
KP78b + KP78a	2	5.83e5	6.51e5	1.24e6	1.77e6	inactive
KP78b + KP78a	3	5.64e5	5.02e5	1.13e6	1.03e6	inactive
KP78b + KP78a	4					inactive
